Test results reported in paper PMC6048318.
No constants are given. Whether binding was seen depends on the method and setting. In cells and extracts the contact can be indirect. Some entries that bind do so weakly or less than the wild type. Blank lines part the entries; values can stand above or below the binder they belong to.

Assays:
[1] = molecular target: T1, TDP-1, the Caenorhabditis elegans ortholog of mammalian TDP-43 (C. elegans (endogenous in worm extract)) (UniProt D0VWM8); assay: co-IP; anti-TDP-1 antibody on protein A magnetic beads, 100 ug worm extract, 4°C 2 h; extract with or without RNase T1 and V1; wild-type and eri-1 mutant backgrounds; blot with anti-HPL-2
T1 sequence: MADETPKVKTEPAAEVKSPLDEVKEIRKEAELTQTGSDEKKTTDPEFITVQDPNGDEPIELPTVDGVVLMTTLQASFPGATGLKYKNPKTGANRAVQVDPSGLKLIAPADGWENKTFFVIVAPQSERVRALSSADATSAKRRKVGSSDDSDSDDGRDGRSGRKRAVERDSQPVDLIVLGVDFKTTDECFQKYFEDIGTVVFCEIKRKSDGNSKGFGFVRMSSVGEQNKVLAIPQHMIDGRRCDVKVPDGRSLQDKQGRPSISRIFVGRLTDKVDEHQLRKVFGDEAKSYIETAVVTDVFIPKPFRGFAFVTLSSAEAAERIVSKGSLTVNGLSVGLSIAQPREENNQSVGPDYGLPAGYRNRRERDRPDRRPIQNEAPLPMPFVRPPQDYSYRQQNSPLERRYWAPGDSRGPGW

[2] = molecular target: T2, HPL-2, the C. elegans heterochromatin protein 1 (HP1) homolog (C. elegans (endogenous in worm extract)) (UniProt G5EDE2); assay: co-IP; anti-HPL-2 antibody on protein A magnetic beads, 100 ug worm extract, 4°C 2 h; extract treated with RNase T1 and V1; blot with anti-TDP-1
T2 sequence: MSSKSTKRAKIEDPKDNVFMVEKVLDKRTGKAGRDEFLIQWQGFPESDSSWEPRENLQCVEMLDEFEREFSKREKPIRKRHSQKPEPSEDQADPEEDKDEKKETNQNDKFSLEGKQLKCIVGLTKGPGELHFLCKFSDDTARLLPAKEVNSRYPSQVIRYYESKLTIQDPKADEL

binding [1]: binds
B1: HPL-2, the C. elegans heterochromatin protein 1 (HP1) homolog (protein, UniProt G5EDE2 1-175)
chain: T2 sequence

binding [2]: binds
B2: TDP-1, the Caenorhabditis elegans ortholog of mammalian TDP-43 (protein, UniProt D0VWM8 1-414)
chain: T1 sequence
